The values that follow come from publication PMC5974125.

Amino acid sequences for entries named in this document (tags omitted).
UniProt Q14457: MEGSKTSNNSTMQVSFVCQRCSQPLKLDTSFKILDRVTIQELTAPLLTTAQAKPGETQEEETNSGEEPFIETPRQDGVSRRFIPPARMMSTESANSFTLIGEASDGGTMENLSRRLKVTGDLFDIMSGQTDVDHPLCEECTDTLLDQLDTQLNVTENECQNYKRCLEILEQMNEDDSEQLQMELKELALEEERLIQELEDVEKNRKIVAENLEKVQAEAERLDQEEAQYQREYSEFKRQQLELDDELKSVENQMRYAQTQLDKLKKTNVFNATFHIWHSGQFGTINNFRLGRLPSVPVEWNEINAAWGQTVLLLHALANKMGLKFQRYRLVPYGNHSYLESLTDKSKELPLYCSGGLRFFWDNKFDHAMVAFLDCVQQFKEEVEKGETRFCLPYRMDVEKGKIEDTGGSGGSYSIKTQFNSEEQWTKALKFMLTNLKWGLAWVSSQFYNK
UniProt P10415: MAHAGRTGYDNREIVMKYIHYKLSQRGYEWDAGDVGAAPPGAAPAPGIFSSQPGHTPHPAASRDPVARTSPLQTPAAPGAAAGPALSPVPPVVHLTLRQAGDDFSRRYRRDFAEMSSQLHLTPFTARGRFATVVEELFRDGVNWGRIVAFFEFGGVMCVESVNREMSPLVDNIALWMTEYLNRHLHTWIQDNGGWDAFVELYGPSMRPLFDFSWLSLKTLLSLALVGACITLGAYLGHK

These are yes or no findings as the source states them, for the method shown. Binding seen in cells or lysates may run through a third protein. Some entries that bind do so weakly or less than the wild type.

The target of assay [1] is Beclin-1 (human (endogenous in AGS and SNU-638)) (UniProt Q14457). In words: co-IP; endogenous proteins in AGS and SNU-638 lysates; cells treated with DMSO (control) or DSGOST (500 μg/mL) for 16 and 24 h; anti-Bcl-2 or anti-Beclin-1 with lysate at 4 °C for 16 h, protein A/G PLUS agarose; 50 mM Tris-HCl pH 7.5, 250 mM NaCl, 5 mM EDTA, 0.5% NP-40; western blotting. A general note: Immunoblotting shows a protein as a band on a membrane.

Assay [2] has as its target Bcl-2 (human (endogenous in AGS and SNU-638)) (UniProt P10415). Described as above.

For Bcl-2 (from UniProt P10415 1-239), the binding result in assay [1] is reported as “binds”.

Regarding Beclin-1 (from UniProt Q14457 1-450), the binding entry in assay [2] was “binds”.
